In this test the target is T1, CBX4-YFP (human) (UniProt O00257).
T1 sequence: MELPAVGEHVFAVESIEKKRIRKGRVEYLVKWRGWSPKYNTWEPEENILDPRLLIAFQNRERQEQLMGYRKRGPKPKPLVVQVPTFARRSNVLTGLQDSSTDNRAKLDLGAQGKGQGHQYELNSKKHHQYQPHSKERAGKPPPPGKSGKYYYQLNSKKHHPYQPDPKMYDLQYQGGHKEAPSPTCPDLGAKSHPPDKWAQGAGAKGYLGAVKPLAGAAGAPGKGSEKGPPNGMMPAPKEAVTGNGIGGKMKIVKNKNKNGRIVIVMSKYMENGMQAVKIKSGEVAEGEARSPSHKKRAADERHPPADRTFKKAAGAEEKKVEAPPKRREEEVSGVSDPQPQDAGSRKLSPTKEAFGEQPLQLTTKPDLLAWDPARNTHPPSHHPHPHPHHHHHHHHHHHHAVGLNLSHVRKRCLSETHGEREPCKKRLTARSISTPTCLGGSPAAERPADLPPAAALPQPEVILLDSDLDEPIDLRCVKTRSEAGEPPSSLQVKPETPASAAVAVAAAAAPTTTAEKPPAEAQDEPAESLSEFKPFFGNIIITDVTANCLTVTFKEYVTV
The experiment in a line: pull-down; GFP-Trap co-pulldown: YFP-tagged bait and HA-tagged prey co-transfected in HEK 293FT cells; lysate (150 mM NaCl, 1% NP-40, 0.5% Triton X-100) with GFP-Trap resin overnight at 4°C; washes with 300 mM NaCl; Western blot. A general note: Immunoblotting shows a protein as a band on a membrane.

No constants are given. Whether binding was seen depends on the method and setting. In cells and extracts the contact can be indirect. A result given as binding can be weak or reduced; the word gives no strength. Sequences can lack the tags named with a protein.

With “SALL1^826-2xHA (human) (domain or fragment)”, the binding entry is listed as “binds”.

(Values after paper PMC8490708.)
